Results are given in words; binding and its absence hold for the method and conditions named. Binding seen in cells or lysates may run through a third protein. For part of these data: Binding can be weak; no strength is given. Tags and fused reporters may be left off the sequences shown.

Common to all, as to assay: co-IP
In one assay the target is T1, HA-tagged RNF125 (UniProt Q96EQ8).
T1 sequence: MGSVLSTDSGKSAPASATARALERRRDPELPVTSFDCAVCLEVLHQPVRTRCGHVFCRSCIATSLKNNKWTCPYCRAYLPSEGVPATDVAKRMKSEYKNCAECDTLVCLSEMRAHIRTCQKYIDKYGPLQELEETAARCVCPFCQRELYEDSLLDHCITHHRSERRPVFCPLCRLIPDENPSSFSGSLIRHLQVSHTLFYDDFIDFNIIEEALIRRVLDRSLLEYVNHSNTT

A further assay concerns the target T2, Myc-tagged IRF9 (UniProt Q00978).
T2 sequence: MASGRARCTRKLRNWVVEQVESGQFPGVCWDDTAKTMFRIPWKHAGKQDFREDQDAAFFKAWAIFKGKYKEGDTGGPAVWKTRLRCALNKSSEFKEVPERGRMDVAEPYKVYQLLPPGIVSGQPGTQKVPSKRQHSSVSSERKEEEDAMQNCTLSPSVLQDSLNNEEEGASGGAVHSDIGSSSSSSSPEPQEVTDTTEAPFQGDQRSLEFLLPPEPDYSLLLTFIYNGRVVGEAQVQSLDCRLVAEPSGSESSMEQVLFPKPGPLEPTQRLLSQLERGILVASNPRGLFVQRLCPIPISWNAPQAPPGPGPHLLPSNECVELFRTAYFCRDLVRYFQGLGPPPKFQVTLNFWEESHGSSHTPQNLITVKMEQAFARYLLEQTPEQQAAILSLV

The target in assay [1] is Flag-tagged Senecavirus A (SVA) 3D protein (Senecavirus A).

For “Flag-tagged Senecavirus A (SVA) 3D protein”, the results for the binding result with HA-tagged RNF125 and with Myc-tagged IRF9 were “binds” and “no binding”, respectively.

B1: HA-tagged RNF125 (protein, UniProt Q96EQ8 1-232)
chain: T1 sequence
As to B1, in assay [1], the binding entry was “binds”.

Source of the values: PMC12506094.
